From paper PMC11134554
Results are given in words; binding and its absence hold for the method and conditions named. Binding seen in cells or lysates may run through a third protein.

Molecular target: T1, Senp7 (sentrin/SUMO-specific protease 7) (mouse (endogenous in primary preadipocytes and iWAT-1 cells)) (UniProt Q8BUH8)
T1 sequence: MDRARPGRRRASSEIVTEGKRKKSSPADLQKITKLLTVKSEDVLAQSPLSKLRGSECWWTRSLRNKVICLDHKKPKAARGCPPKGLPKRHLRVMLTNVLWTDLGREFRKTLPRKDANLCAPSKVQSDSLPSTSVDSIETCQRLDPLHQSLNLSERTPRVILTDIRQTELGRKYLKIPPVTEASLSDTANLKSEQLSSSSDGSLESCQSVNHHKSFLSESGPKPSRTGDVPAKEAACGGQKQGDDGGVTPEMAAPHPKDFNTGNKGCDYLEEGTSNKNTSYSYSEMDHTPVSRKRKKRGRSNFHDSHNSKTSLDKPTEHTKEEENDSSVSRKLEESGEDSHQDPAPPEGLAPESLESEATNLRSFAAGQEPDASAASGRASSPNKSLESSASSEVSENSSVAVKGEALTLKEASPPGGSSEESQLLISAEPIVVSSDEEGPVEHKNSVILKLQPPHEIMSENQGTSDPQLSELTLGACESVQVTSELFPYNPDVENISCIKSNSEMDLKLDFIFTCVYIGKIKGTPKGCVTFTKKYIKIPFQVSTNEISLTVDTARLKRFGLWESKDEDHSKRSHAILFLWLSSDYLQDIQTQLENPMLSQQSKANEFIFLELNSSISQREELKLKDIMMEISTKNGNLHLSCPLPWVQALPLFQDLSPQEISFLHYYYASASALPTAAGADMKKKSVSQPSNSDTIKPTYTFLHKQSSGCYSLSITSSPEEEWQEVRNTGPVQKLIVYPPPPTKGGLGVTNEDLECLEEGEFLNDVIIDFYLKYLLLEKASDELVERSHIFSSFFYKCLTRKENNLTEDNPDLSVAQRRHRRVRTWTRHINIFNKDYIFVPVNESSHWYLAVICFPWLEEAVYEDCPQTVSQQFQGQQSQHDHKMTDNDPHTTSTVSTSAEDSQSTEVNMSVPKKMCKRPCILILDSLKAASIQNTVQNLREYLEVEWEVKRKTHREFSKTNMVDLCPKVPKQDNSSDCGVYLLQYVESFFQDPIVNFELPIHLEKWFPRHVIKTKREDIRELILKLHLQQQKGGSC
Experiment: co-IP; endogenous proteins in iWAT-1 cell lysate; IP lysis buffer (20 mM Tris-HCl pH 8, 137 mM NaCl, 1% Nonidet P-40, 2 mM EDTA) with 1 mM N-ethylmaleimide; antibody overnight at 4 °C, protein G Sepharose beads; Western blot

- binding: no binding
B1: Plin2 (perilipin 2) (protein, UniProt P43883 1-425)
chain: MAAAVVDPQQSVVMRVANLPLVSSTYDLVSSAYVSTKDQYPYLRSVCEMAEKGVKTVTSAAMTSALPIIQKLEPQIAVANTYACKGLDRMEERLPILNQPTSEIVASARGAVTGAKDVVTTTMAGAKDSVASTVSGVVDKTKGAVTGSVERTKSVVNGSINTVLGMVQFMNSGVDNAITKSELLVDQYFPLTQEELEMEAKKVEGFDMVQKPSNYERLESLSTKLCSRAYHQALSRVKEAKQKSQETISQLHSTVHLIEFARKNMHSANQKIQGAQDKLYVSWVEWKRSIGYDDTDESHCVEHIESRTLAIARNLTQQLQTTCQTVLVNAQGLPQNIQDQAKHLGVMAGDIYSVFRNAASFKEVSDGVLTSSKGQLQKMKESLDEVMDYFVNNTPLNWLVGPFYPQSTEVNKASLKVQQSEVKAQ
